Data as given in publication PMC5132261.
These are yes or no findings as the source states them, for the method shown. In cells and extracts the contact can be indirect. A result given as binding can be weak or reduced; the word gives no strength. Tags and fused reporters may be left off the sequences shown.

Molecular target: Myc-Trio1-1203 (human)
Assay: co-IP; co-transfected COS7 cells; lysis in 50 mM Tris pH 7.5, 150 mM NaCl, 1 mM EDTA, 1% Triton X-100; IP with rabbit anti-Myc antibody or rabbit IgG, protein A/G beads; washes in NETN-250 (250 mM NaCl, 0.5% NP-40); Western blot with anti-GFP

| binding | Binder |
| --- | --- |
| no binding | GFP-Bassoon2298-3238 (domain or fragment, UniProt O88778 2298-3238) GAREEPLSTTAPPAVIKEAPVAQAPAPPPGQKPAGDAAAGSGSGVLGRPVMEKEEASQEDRQRKQQEQLLQLERERVELEKLRQLRLQEELERERVELQRHREEEQLLVQRELQELQTIKHHVLQQQQEERQAQFALQREQLAQQRLQLEQIQQLQQQLQQQLEEQKQRQKAPFPATCEAPSRGPPPAATELAQNGQYWPPLTHTAFIAVAGTEGPGQAREPVLHRGLPSSASDMSLQTEEQWEAGRSGIKKRHSMPRLRDACEPESGPDPSTVRRIADSSVQTDDEEGEGRYLLTRRRRTRRSADCSVQTDDEDNAEWEQPVRRRRSRLSRHSDSGSDSKHEASASSSAAAAAARAMSSVGIQTISDCSVQTEPEQLPRVSPAIHITAATDPKVEIVRYISAPEKTGRGESLACQTEPDGQAQGVAGPQLIGPTAISPYLPGIQIVTPGALGRFEKKKPDPLEIGYQAHLPPESLSQLVSRQPPKSPQVLYSPVSPLSPHRLLDTSFASSERLNKAHVSPQKQFIADSTLRQQTLPRPMKTLQRSLSDPKPLSPTAEESAKERFSLYQHQGGLGSQVSALPPNGLVRKVKRTLPSPPPEEAHLPLAGQVPSQLYAASLLQRGLAGPTTVPATKASLLRELDRDLRLVEHESTKLRKKQAELDEEEKEIDAKLKYLELGITQRKESLAKDRVGRDYPPLRGLGEHRDYLSDSELNQLRLQGCTTPAGQYVDYPASAAVPATPSGPTAFQQPRFPPAATQYTAGSSGPTQNGFLAHQAPTYTGPSTYPAPTYPPGTSYPAEPGLPSQPAFHPTGHYAAPTPMPTTQSAPFPVQADSHAAHQKPRQTSLADLEQKVPTNYEVISSPAVTVSSTPSETGYSGPAVSSSYEHGKAPEHPRGGDRSSVSQSPAPTYPSDSHYTSLEQNVPRNYVMIDDISELTKDS |
| binds | GFP-Bassoon3263-3938 (domain or fragment, UniProt O88778 3263-3938) DPGEPAVLEGPTLPCCYGRGEEESEEDSYDPRGKSGHHRSMESNGRPASTHYYSDSDYRHGARADKYGPGPMGPKHPSKNLAPAAISSKRSKHRKQGMEQKISKFSPIEEAKDVESDLASYPPPTVSSSLTSRSRKFQDEITYGLKKNVYEQQRYYGVSSRDTAEEDDRMYGGSSRSRVASAYSGEKLSSHDFSSRSKGYERERETAQRLQKAGPKPSSLSMAHGRARPPMRSQASEEESPVSPLGRPRPAGGALPPGDTCPQFCSSHSMPDVQEHVKDGPRAHAYKREEGYILDDSHCVVSDSEAYHLGQEETDWFDKPRDARSDRFRHHGGHTVSSSQKRGPARHSYHDYDEPPEEGLWPHDEGGPGRHTSAKEHRHHGDHGRHSGRHAGEEPGRRAARPHARDMGRHETRPHPQASPAPAMQKKGQPGYPSSADYSQPSRAPSAYHHASDSKKGSRQAHSGPTVLQPKPEAQAQPQMQGRQAVPGPQQSQPPSSRQTPSGTASRQPQTQQQQQQQQQQQQQQQQQQQQQQQQGLGQQAPQQAPSQARLQQQSQPTTRSTAPAASHPAGKPQPGPTTAPGPQPAGLPRAEQAGSSKPAAKAPQQGRAPQAQSAPGPAGAKTGARPGGTPGAPAGQPAAEGESVFSKILPGGAAEQAGKLTEAVSAFGKKFSSFW |
| binds | GFP-tagged C-terminal PBH9/10 region of Piccolo (amino acids 4077–4875) (domain or fragment, UniProt Q9JKS6 4077-4875) EFRRGTESLDHLAGLSHYYHADTSYRHFPKSEKYSISRLTLEKQAAKQLPAAILYQKQSKHKKSLIDPKMSKFSPIQESRDLEPDYPTYMSSGTSSIGGISSRARLLQDDITFGLRKNITDQQKFMGSSLGSGLGTLGNTIRSALQDEADKPYSSGSRSRPSSRPSSVYGLDLSIKRDSSSSSLRLKAQEAEALDVSFGHSSSSARTKPTSLPISQSRGRIPIVAQSSEEESPLSPVGQPMGMARAAAGPLPPISADTRDQFGSSHSLPEVQQHMREESRTRGYDRDIAFIMDDFQHAMSDSEAYHLRREETDWFDKPRESRLENGHGLDRKLPERLVHSRPLSQHQEQILQMNGKTIHYIFPHARVKITRDFKDHTGSGNGLGIRIVGGKEIPGHSGEIGAYIAKILPGESAEHTGPLMEGMQVLEWNGVPLTSKTYEEVQSIINQQSGEAEICVRLDLNMLSDSENPQHLELHEPPKVDKAKSPGVDPKQLAAELQKVSLQQSPLVMSSVVEKGSHAHSGPTSAGSSSVPSPGQPGSPSVSKKKHSSTKPTDGPKAASHPITGEIQLQINYDLGNLIIHILQARNLVPRDNNGYSDPFVKVYLLPGRGQVMVVQNASAEYKRRTKYVQKSLNPEWNQTVIYKSISMEQLMKKTLEVTVWDYDRFSSNDFLGEVLIDLSSTSHLDNTPRWYPLKEQTESIDHGKSHSSQNSQQSPKPSVIKSRSHGIFPDPSKDMQVPTIEKSHSSPGSSKSSSEGHLRSHGPSRSQSKTSVAQTHLEDAGVAIAAAEAAVQQLRIQP |
